Measured data: PubChem BioAssay AID743454 (Peter MacCallum Cancer Centre, 2014)

Aim: 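Knock-downs lowering viability or raising caspase 3/7 activity in vorinostat-treated resistant cells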 (primary screen)
System: human HCT116-VR colon cancer cells, selected for vorinostat resistance
Reagent: siRNA pool against human genes, 40 nM siRNA pool
Timing: vorinostat for 24 h, read-out about 72 h after transfection
Treatment: vorinostat at 2.5 µM final
Measurement: 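Two measures, CellTiter-Fluor viability and luminescent caspase 3/7 activity, each as fold change against same-plate mock wells, mean of duplicates, then screen-wide robust z-score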
Scale: viability robust z-score: higher = more viable cells than screen typical; caspase robust z-score: higher = more caspase 3/7 activity than screen typical
Call rule: 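Hits are knock-downs in viability class RV1/RV2 or caspase class CA1/CA2, excluding ones that killed cells in the no-drug cell-count arm; hits then retested with single siRNAs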
This is an unselected part of about 18,000 reagents. 450 of all reagents (2.5%) count as active. 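Single biological run; no consistent viability z cut-off exists, so the class columns, not z-scores, define the calls.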 A number with no mark means an inactive call.

| Target gene | viability hit class | caspase hit class | viability robust z-score | caspase robust z-score |
| --- | --- | --- | --- | --- |
| NEFL (GeneID 4747) | no change | no change | 0.86 | 2.82 |
| OLFM2 (GeneID 93145) | no change | no change | -0.18 | 1.2 |
| COMP (GeneID 1311) | no change | no change | -0.1 | -0.86 |
| TMEM139 (GeneID 135932) | no change | no change | -0.15 | 1.86 |
| PACSIN2 (GeneID 11252) | no change | no change | -0.08 | 0.73 |
| FZD10 (GeneID 11211) | no change | no change | 0.6 | -0.15 |
| GLI2 (GeneID 2736) | no change | no change | -0.41 | 1.84 |
| SIGIRR (GeneID 59307) | no change | no change | -0.27 | 1.29 |
| RADIL (GeneID 55698) | no change | no change | 0.75 | -0.14 |
| RASA2 (GeneID 5922) | no change | no change | 2.6 | -0.3 |
| PPAT (GeneID 5471) | no change | no change | 0.7 | -0.74 |
| TMEM89 (GeneID 440955) | no change | no change | -3.73 | 0.18 |
| RNASE10 (GeneID 338879) | no change | no change | 0.93 | 2.54 |
| NUTM2G (GeneID 441457) | no change | no change | 0.58 | -0.96 |
| APOD (GeneID 347) | no change | no change | 1.44 | -0.46 |
| MTA1 (GeneID 9112) | no change | no change | -0.38 | -0.56 |
| GARRE1 (GeneID 9710) | no change | no change | 1.76 | 1.36 |
| PAQR9 (GeneID 344838) | no change | no change | -0.8 | 4.66 |
| MAST3 (GeneID 23031) | no change | no change | -0.24 | -0.22 |
| SSR1 (GeneID 6745) | no change | no change | 0.72 | -0.11 |
| BKGD (GeneID 28970) | no change | no change | 0.24 | -0.79 |
| CABP5 (GeneID 56344) | no change (active) | CA2 (caspase activation) | -2.38 | 6.07 |
| GAB3 (GeneID 139716) | no change | no change | 0.33 | 1.45 |
| ALDH5A1 (GeneID 7915) | no change | no change | -0.02 | -0.43 |
| CYP2A7 (GeneID 1549) | no change | no change | 1.19 | -0.3 |
| CCZ1B (GeneID 221960) | no change | no change | 1.34 | -0.35 |
| ESRRB (GeneID 2103) | no change | no change | -0.31 | -0.69 |
| SIGLEC9 (GeneID 27180) | no change | no change | -0.39 | -0.22 |
| PCNT (GeneID 5116) | no change | no change | -2.42 | 1.03 |
| ERBB4 (GeneID 2066) | no change | no change | -1.36 | 3.1 |
| KBTBD2 (GeneID 25948) | no change | no change | 1.72 | -0.12 |
| PGAM5 (GeneID 192111) | no change | no change | -3.84 | 0.96 |
| COL23A1 (GeneID 91522) | no change | no change | 0.28 | -1.25 |
| CPLX3 (GeneID 594855) | no change | no change | 0.03 | -0.2 |
| HACD1 (GeneID 9200) | no change | no change | 0.55 | 0.55 |
| SNRPD3 (GeneID 6634) | no change | no change | -3.25 | -0.65 |
| ZNF512B (GeneID 57473) | no change | no change | -0.16 | -1.12 |
| SLAMF9 (GeneID 89886) | no change | no change | 0.2 | -0.08 |
| PABPC3 (GeneID 5042) | no change | no change | -0.44 | 0.59 |
| TBXAS1 (GeneID 6916) | no change | no change | 1 | 0.12 |
| BTN3A3 (GeneID 10384) | no change | no change | -1.88 | 1.41 |
| RPL23A (GeneID 6147) | no change | no change | -6.14 | -0.74 |
| AMT (GeneID 275) | no change | no change | -2.2 | 0.29 |
| OR10H1 (GeneID 26539) | no change | no change | -0.13 | 2.29 |
| ZNF70 (GeneID 7621) | no change | no change | -1.77 | -0.53 |
| GTF2E2 (GeneID 2961) | no change | no change | 0.8 | -0.58 |
| ATG4A (GeneID 115201) | no change | no change | 0.72 | -1.01 |
| PIGW (GeneID 284098) | no change | no change | 0.88 | 0 |
| PLSCR4 (GeneID 57088) | no change | no change | 0.42 | 0.4 |
| PLPP7 (GeneID 84814) | no change | no change | -1.31 | 0.52 |
| H2AC1 (GeneID 221613) | no change | no change | 0.08 | 0.88 |
| TUBA4A (GeneID 7277) | no change | no change | -2.72 | 0.28 |
| POU2F2 (GeneID 5452) | no change | no change | -0.99 | 0.17 |
| P2RY8 (GeneID 286530) | no change | no change | 0.62 | -0.64 |
| RAP1GDS1 (GeneID 5910) | no change | no change | 2.41 | 0.37 |
| RASSF1 (GeneID 11186) | no change | no change | -0.24 | 2.03 |
| PKNOX2 (GeneID 63876) | no change | no change | 0.41 | -0.87 |

Taken from above:
Under “viability robust z-score”, ALDH5A1 (GeneID 7915) reads -0.02
Result of PPAT (GeneID 5471) under “viability hit class”: no change
PACSIN2 (GeneID 11252), viability hit class → no change
For “viability robust z-score”, NEFL (GeneID 4747) is entered as 0.86
For “caspase hit class”, ESRRB (GeneID 2103) is entered as no change
Entry for SIGLEC9 (GeneID 27180) under “viability robust z-score”: -0.39
